Assay: Absolute quantitation of tumor associated peptides presented on the cell surface (nano LC-MS/MS)
Set-up: species or system human
Conditions: tumor samples
From the text: The generation of binders, such as antibodies and/or TCRs, is a laborious process, which may be conducted only for a number of selected targets. In the case of tumor associated and specific peptides, selection criteria include, but are not restricted to, exclusiveness of presentation and the density of peptide presented on the cell surface. In addition to the isolation and relative quantitation of peptides as described in EXAMPLE 1, the inventors did analyze absolute peptide copies per cell as described in WO 2016/107740. The quantitation of TUMAP copies per cell in solid tumor samples requires the absolute quantitation of the isolated TUMAP, the efficiency of the TUMAP isolation process, and the cell count of the tissue sample analyzed.
For an accurate quantitation of peptides by mass spectrometry, a calibration curve was generated for each individual peptide using two different isotope labeled peptide variants (one or two isotope-labeled amino acids are included during TUMAP synthesis). […]
The calibration curves were prepared in at least three different matrices, i.e. HLA peptide eluates from natural samples similar to the routine MS samples, and each preparation was measured in duplicate MS runs. For evaluation, MS signals were normalized to the signal of the internal standard and a calibration curve was calculated by logistic regression. […]

| Substance | COPIES PER CELL (MEDIAN) |
| --- | --- |
| 2 (RLLEGDFSL; peptide displayed by HLA-A*02) [compound 2] | + (≥25 = +) |
| 61 (FISDFTMTI; peptide displayed by HLA-A*02) [compound 61] | ++++ (≥100 = ++++) |

— US11969464B2, “Amidated peptides and their deamidated counterparts displayed by HLA-A*02 for use in immunotherapy against different types of cancers” (Immatics Biotechnologies GmbH, priority 2020, dated 2024)
